# System: tumor tissue samples and normal tissue samples (HLA-B*07 positive)
# Experiment: Identification and quantitation of tumor associated peptides presented on the cell surface (HLA immunoprecipitation, label-free LC-MS)
# Design: species or system human
# Conditions: Table 8a; cancer entities on which the peptide was found presented (abbreviations in table head)
row,Substance,Peptide Presentation on cancer entities
1,83 (AVSSHHNVI; listed as Homo sapiens) [compound 83],RCC
2,70 (VPAQRLGLL; listed as Homo sapiens) [compound 70],"AML, NSCLCadeno, NSCLCsquam, OC, OSCAR"
3,35 (APLPPPRAL; listed as Homo sapiens) [compound 35],GBM
4,212 (VPYAAQAAL; listed as Homo sapiens) [compound 212],BRCA
5,145 (VPAQRLGLLL; listed as Homo sapiens) [compound 145],"BRCA, GBM, HNSCC, NSCLCsquam, OC"
6,329 (QPANFIVLL; listed as Homo sapiens) [compound 329],GBC
7,361 (SPYGSDRLVQL; listed as Homo sapiens) [compound 361],"CLL, NHL"
8,252 (QPENSLEGISL; listed as Homo sapiens) [compound 252],NSCLCsquam
9,102 (MAGPAIHTAPM; listed as Homo sapiens) [compound 102],HNSCC
10,179 (PRVRLLLL; listed as Homo sapiens) [compound 179],"GBC, HNSCC"
11,95 (RTKEEINEL; listed as Homo sapiens) [compound 95],NSCLCadeno
12,169 (RPFSVSSISQL; listed as Homo sapiens) [compound 169],MEL
13,93 (SVAIAHGVF; listed as Homo sapiens) [compound 93],"CLL, CRC"
14,18 (MALSVLRLAL; listed as Homo sapiens) [compound 18],"GBC, GC, NSCLCsquam, OC, OSCAR, PACA, PRCA, SCLC"
15,50 (PEKARAFL; listed as Homo sapiens) [compound 50],OSCAR
16,117 (IPHQRSSL; listed as Homo sapiens) [compound 117],CLL
17,27 (RIRVTSEVL; listed as Homo sapiens) [compound 27],BRCA
18,226 (APGGSSRSSL; listed as Homo sapiens) [compound 226],AML
19,243 (MARTGGMVVI; listed as Homo sapiens) [compound 243],"CRC, NSCLCadeno, NSCLCsquam"
20,135 (MPRLLRLSL; listed as Homo sapiens) [compound 135],UEC
21,87 (APVGGNVTSSF; listed as Homo sapiens) [compound 87],OSCAR
22,29 (APLRVHITSL; listed as Homo sapiens) [compound 29],MEL
23,154 (RPPPSRRAVL; listed as Homo sapiens) [compound 154],GBM
24,206 (TPRIGPKVSL; listed as Homo sapiens) [compound 206],"AML, BRCA, CCC, CLL, CRC, GBC, GBM, GC, HCC, HNSCC, MEL, NSCLCadeno, NSCLCsquam, OSCAR, PACA, RCC, SCLC, UBC, UEC"

row,Substance,Peptide Presentation on cancer entities
1,13 (LPNTGRIGQL; listed as Homo sapiens) [compound 13],PRCA
2,331 (SPDSAILKL; listed as Homo sapiens) [compound 331],"NSCLCsquam, UEC"
3,97 (LPPGTQIQI; listed as Homo sapiens) [compound 97],CRC
4,365 (RPKHFLQML; listed as Homo sapiens) [compound 365],OSCAR
5,359 (SPRRLVELAGQSL; listed as Homo sapiens) [compound 359],"MEL, OC, OSCAR, UEC"
6,56 (LPALLRSGLTL; listed as Homo sapiens) [compound 56],"BRCA, CCC, CRC, GBC, HCC, HNSCC, MEL, NHL, NSCLCadeno, OC, OSCAR, RCC"
7,116 (RSYQHSLRL; listed as Homo sapiens) [compound 116],CRC
8,77 (QPRLVPGETL; listed as Homo sapiens) [compound 77],"GBC, MEL, NHL, NSCLCadeno, NSCLCsquam"
9,286 (APARPAAAF; listed as Homo sapiens) [compound 286],"BRCA, MEL, NSCLCadeno, OC, RCC"
10,346 (IPMPRITWL; listed as Homo sapiens) [compound 346],BRCA
11,269 (FTVSSSSAM; listed as Homo sapiens) [compound 269],GBC
12,125 (SPAKQFNIY; listed as Homo sapiens) [compound 125],SCLC
13,12 (LPNTGRIGQLL; listed as Homo sapiens) [compound 12],NSCLCadeno
14,17 (SPAAPLSPASSL; listed as Homo sapiens) [compound 17],UBC
15,67 (VPVSRPVL; listed as Homo sapiens) [compound 67],"CLL, NHL"
16,352 (LPAFSKIGGIL; listed as Homo sapiens) [compound 352],"CRC, MEL"
17,276 (RPVWDVRSA; listed as Homo sapiens) [compound 276],HNSCC
18,314 (IALMKLAGPL; listed as Homo sapiens) [compound 314],"AML, CRC, HCC, MEL, NHL, NSCLCadeno, UEC"
19,64 (VPRPIFSQLYL; listed as Homo sapiens) [compound 64],"NHL, UEC"
20,183 (VPRRPARAL; listed as Homo sapiens) [compound 183],"BRCA, GBM, MEL"
21,251 (MPVDSFNSM; listed as Homo sapiens) [compound 251],"MEL, NSCLCadeno, NSCLCsquam, RCC, SCLC, UBC"
22,211 (IPDTIASVL; listed as Homo sapiens) [compound 211],MEL
23,158 (SVPVATVEL; listed as Homo sapiens) [compound 158],CLL

# Same assay, conditions: Table 8b; cancer entities on which the peptide was found presented (abbreviations in table head)
row,Substance,Peptide Presentation on cancer entities
1,482 (QPSLKKIIL; listed as Homo sapiens) [compound 482],PACA
2,499 (QPVLPSPAC; listed as Homo sapiens) [compound 499],MEL
3,498 (RPQPQPRPAL; listed as Homo sapiens) [compound 498],"HNSCC, OSCAR"
4,471 (LPLLAGTLLL; listed as Homo sapiens) [compound 471],NSCLCadeno
5,463 (LPTDLFNSVM; listed as Homo sapiens) [compound 463],MEL
6,474 (VPKADLLTL; listed as Homo sapiens) [compound 474],MEL
7,486 (TPTRPLPSA; listed as Homo sapiens) [compound 486],NSCLCadeno
8,491 (MPEADLKRIF; listed as Homo sapiens) [compound 491],MEL
9,460 (APLMPLGKTL; listed as Homo sapiens) [compound 460],PACA
